The test addresses T1, Foxp3 (murine, tag-fused, expressed in HEK293T cells) (mouse) (UniProt Q99JB6).
T1 sequence: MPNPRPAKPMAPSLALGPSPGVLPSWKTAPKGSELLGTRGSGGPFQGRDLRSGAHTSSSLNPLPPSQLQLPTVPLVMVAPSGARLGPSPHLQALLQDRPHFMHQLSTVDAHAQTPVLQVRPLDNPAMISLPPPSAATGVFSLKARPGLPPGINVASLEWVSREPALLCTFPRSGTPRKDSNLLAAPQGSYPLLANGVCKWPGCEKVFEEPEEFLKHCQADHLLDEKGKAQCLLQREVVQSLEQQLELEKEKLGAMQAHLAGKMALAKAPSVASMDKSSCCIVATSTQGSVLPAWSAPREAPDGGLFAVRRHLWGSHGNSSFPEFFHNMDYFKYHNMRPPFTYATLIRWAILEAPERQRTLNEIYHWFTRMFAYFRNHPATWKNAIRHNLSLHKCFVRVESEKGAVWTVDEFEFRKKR
Kind of test: co-IP.

No constants are given. Whether binding was seen depends on the method and setting. Binding seen in cells or lysates may run through a third protein. Binding calls can cover weak binding; strength is not graded here. Sequences can lack the tags named with a protein.

Consider “Ikzf1 ΔC mutant (C-terminal region deleted) (mouse) (domain or fragment)”, for which the binding result is “binds”.

As for “Ikzf1 ΔN mutant (N-terminal region deleted) (mouse) (domain or fragment)”, the binding entry is on record as “no binding”.
